{"sequences": {"note": "Protein sequences, listed by entry. Tags and fused reporters are not part of them. Lines headed by an entry give the natural chain unless they say otherwise; changes in a name come on top.", "UniProt P29067": "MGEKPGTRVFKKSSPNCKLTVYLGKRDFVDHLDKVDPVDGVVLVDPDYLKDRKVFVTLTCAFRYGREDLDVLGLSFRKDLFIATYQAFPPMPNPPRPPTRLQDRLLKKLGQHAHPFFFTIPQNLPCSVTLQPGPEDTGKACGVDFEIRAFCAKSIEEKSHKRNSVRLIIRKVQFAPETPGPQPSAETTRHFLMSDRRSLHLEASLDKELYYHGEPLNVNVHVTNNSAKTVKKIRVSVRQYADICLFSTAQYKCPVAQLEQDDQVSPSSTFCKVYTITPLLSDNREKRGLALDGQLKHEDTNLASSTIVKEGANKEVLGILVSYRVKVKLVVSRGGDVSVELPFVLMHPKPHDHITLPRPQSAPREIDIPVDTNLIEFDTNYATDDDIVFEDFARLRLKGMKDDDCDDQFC", "UniProt P25106": "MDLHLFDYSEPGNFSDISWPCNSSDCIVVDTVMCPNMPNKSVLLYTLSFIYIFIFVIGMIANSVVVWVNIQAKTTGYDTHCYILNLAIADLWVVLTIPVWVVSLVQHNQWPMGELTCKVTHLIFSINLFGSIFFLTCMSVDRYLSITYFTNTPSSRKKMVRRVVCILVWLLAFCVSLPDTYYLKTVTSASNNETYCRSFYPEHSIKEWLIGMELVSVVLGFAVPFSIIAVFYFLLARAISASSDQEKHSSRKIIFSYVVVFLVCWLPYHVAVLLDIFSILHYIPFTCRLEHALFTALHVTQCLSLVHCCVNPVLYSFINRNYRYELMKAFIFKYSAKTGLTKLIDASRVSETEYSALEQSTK"}, "source": "paper doi:10.1101/2025.01.05.631353", "about": "(bioRxiv, 2025)", "key": {"β-arrestin2 [1]": {"target": "β-arrestin2 (UniProt P29067)", "assay": "HDX-MS"}, "β-arrestin2 [2]": {"target": "β-arrestin2 (UniProt P29067)", "assay": "ITC"}}, "note": "These are yes or no findings as the source states them, for the method shown. Some entries that bind do so weakly or less than the wild type."}
{"substance": "C7pp2, phosphopeptide derived from the carboxyl terminus of CXCR7 (residues 346-359) (from UniProt P25106 346-359)", "values": [{"measurement": "binding", "setting": "β-arrestin2 [1]", "result": "binds"}, {"measurement": "binding", "setting": "β-arrestin2 [2]", "result": "binds"}]}
